# Paper PMC7819943, “Rice protein-binding microarrays: a tool to detect cis-acting elements near promoter regions in rice”
# Chains of the proteins cited; added tags and fusions are not shown.
# UniProt Q0JBA9, entry or part of it: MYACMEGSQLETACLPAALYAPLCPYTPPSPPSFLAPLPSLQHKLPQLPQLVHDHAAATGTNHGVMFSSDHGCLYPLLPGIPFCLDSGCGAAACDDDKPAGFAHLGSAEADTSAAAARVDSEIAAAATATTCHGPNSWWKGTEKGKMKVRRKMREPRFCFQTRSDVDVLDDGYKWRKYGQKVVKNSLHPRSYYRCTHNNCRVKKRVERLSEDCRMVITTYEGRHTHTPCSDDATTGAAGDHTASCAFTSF
# The list shows a part of the results.
# Target: OsWRKY34 (Oryza sativa, UniProt Q0JBA9 1-250)
# Experiment: protein-binding microarray (RPBM); PBS, 2% BSA, 51.3 ng/ul salmon testes DNA, 50 uM zinc acetate, 200 nM TF, 25 C, 1 h; high values mean tight binding
# Conditions: protein: recombinant; tags: N-terminal polyhistidine and DsRed monomer fusion (pET32a); label: CyDye5-dUTP incorporated in the synthesized complementary strand; 3' TTTTT single-stranded linker to array surface; dsDNA, one strand shown
# Procedure, shortened: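 For the binding signal, per-feature fluorescence intensity was read in arbitrary units on an Axon 4000B scanner. Before scanning, a 2% BSA-blocked custom Agilent array made double-stranded with Cy5-dUTP was washed after 1 h at 25 °C with 200 nM protein and 50 µM zinc acetate. The proteins were Ni–NTA-purified transcription factors with N-terminal polyhistidine and DsRed fusions, expressed in E. coli BL21-CodonPlus.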
row,Sequence,binding signal
1,TACACTATAGATTGCTCTCGCCTTAATTAATTAATTTCTACGGAGTCACCTAGTGCAG,9540 fluorescence intensity (a.u.)
2,TTGCCTGTTATGTTCGTTCTGCAAGTCTCTTTTCGTATATCGGAGTCACCTAGTGCAG,10300 fluorescence intensity (a.u.)
3,AAAGTTTTTTGTCGTTGTTTGTTTTCCAGTATTTGCTTTTCGGAGTCACCTAGTGCAG,18000 fluorescence intensity (a.u.)
4,GCCTTATCCATCTACTAGTATTCTTTCTGATTTAGTTCAACGGAGTCACCTAGTGCAG,8550 fluorescence intensity (a.u.)
5,ACTTGATCTTGATATCTTCTTGTTCATCCATGATGTGAGACGGAGTCACCTAGTGCAG,8360 fluorescence intensity (a.u.)
6,CAAGCAAACAACCTCTAGCTAGGACCTCTCTTCTATGTCTCGGAGTCACCTAGTGCAG,8210 fluorescence intensity (a.u.)
7,CGCTTCGCTTCCTTTCTGTCGTGGTGTCCTCGACGATCCCCGGAGTCACCTAGTGCAG,8040 fluorescence intensity (a.u.)
8,CCACCTCCGCCGCTCTCTCCACTGCGCCGCCGGCGCCATGCGGAGTCACCTAGTGCAG,9400 fluorescence intensity (a.u.)
9,ATACGGCCGGCTTTTCCCTTGGGTGCACACATCGATCCCTCGGAGTCACCTAGTGCAG,8960 fluorescence intensity (a.u.)
10,CCGGTCTGACTGCTGCACGAGCAACCCGACTCGATGGATCCGGAGTCACCTAGTGCAG,8740 fluorescence intensity (a.u.)
11,TTCGTCTTCTCATGCTTGTACTGCCACTTACCATACCATACGGAGTCACCTAGTGCAG,14300 fluorescence intensity (a.u.)
12,TTGGAATCGCCTCACTCACGAACTCCTACGTACGCTACACCGGAGTCACCTAGTGCAG,8910 fluorescence intensity (a.u.)
13,AGTTGGTTTTGGCTGAGTTTAGTTTCAAACTTTTTCGTCACGGAGTCACCTAGTGCAG,10600 fluorescence intensity (a.u.)
14,GTGTGCTTTCCTGCTGCGTGTGGTGCTATTATTGCTAGTCCGGAGTCACCTAGTGCAG,9840 fluorescence intensity (a.u.)
15,TTAACATCAATGCAACACACATAGAGATCACAGTCACACACGGAGTCACCTAGTGCAG,8110 fluorescence intensity (a.u.)
16,TTTTGGATCCAAGCTGGTTGATTGATTGCTCTTCGTCTCCCGGAGTCACCTAGTGCAG,10400 fluorescence intensity (a.u.)
17,GTCGTCGTTCTTATTACAACTCCATTTGATAACTCCATACCGGAGTCACCTAGTGCAG,8160 fluorescence intensity (a.u.)
18,CGCCTGTTTCGGTTACTCTCTTTGTAATCTGTTCTCATCACGGAGTCACCTAGTGCAG,9680 fluorescence intensity (a.u.)
19,TCCACGCCGTCCATTCGCCATCGCCGTCGGGTATATAAACCGGAGTCACCTAGTGCAG,9810 fluorescence intensity (a.u.)
20,GAATTTTTTTTTATCATCTTTGACGGGCACACAAATTTTACGGAGTCACCTAGTGCAG,8140 fluorescence intensity (a.u.)
21,ATATTCCCTCCGTTTTGAAATGTTTGACGCCGTTGACTTTCGGAGTCACCTAGTGCAG,17000 fluorescence intensity (a.u.)

row,Sequence,binding signal
1,GTGGGGAGGGGAGGTGGGTCGCCGAAAGCTTGGCTGAGATCGGAGTCACCTAGTGCAG,12400 fluorescence intensity (a.u.)
2,GTGGGTATGGTTGACTTGACGGACGTACTACTCCATACTACGGAGTCACCTAGTGCAG,8190 fluorescence intensity (a.u.)
3,GTTGAGGGAGGCGTTTTACCTGGTTTTGCGGTTGAGGGATCGGAGTCACCTAGTGCAG,8490 fluorescence intensity (a.u.)
4,CCCTATTCTTTGGACAGTGACAATTATATGTCTATTTTTACGGAGTCACCTAGTGCAG,8210 fluorescence intensity (a.u.)
5,CTCCAGCGCTCCTACTCCATCTCCGGCCTCCGACTCCCAGCGGAGTCACCTAGTGCAG,8040 fluorescence intensity (a.u.)
6,GTGGTAGAAGCTATATTGTCACTGTGGTCGTCATTGTAGTCGGAGTCACCTAGTGCAG,8690 fluorescence intensity (a.u.)
7,GACACGTCACTACCTCACCCAAACGGACCCAATCCTCACCCGGAGTCACCTAGTGCAG,9550 fluorescence intensity (a.u.)
8,ATCCTGAGCGTCTCTTACTCTTCTCACGAGAACCCAAACGCGGAGTCACCTAGTGCAG,8740 fluorescence intensity (a.u.)
9,ACCTGACCGTCTCAAGCCAACCCACGAAGTTCCAAATTTTCGGAGTCACCTAGTGCAG,8390 fluorescence intensity (a.u.)
10,ACCCGATCCACTCTCAGCCAGCGCCACCGCCACCGGATCCCGGAGTCACCTAGTGCAG,9560 fluorescence intensity (a.u.)
11,AAGGAAGGGGATGGGCGGCGGAGGCGGGGAGTAGGACGGCCGGAGTCACCTAGTGCAG,8160 fluorescence intensity (a.u.)
12,GGTAACTTGCACTGTGGAGTATGTGGCTAATGGGGTTCTTCGGAGTCACCTAGTGCAG,8830 fluorescence intensity (a.u.)
13,TCAACCTCACGCTCACATTCTTGCTAGCTCACTCCTCTCCCGGAGTCACCTAGTGCAG,10300 fluorescence intensity (a.u.)
14,TATTTGTTTGGCTATCATCTTAGGAGTACATATATGCCAACGGAGTCACCTAGTGCAG,9560 fluorescence intensity (a.u.)
15,GCCTGCTCTGTTTCTCTGGTCTCGGCCCACAAACGATTCGCGGAGTCACCTAGTGCAG,9330 fluorescence intensity (a.u.)
16,CTCGCCGCGTGCTCCTTTACTGCTCTCTGCTCGCGCAGGACGGAGTCACCTAGTGCAG,9230 fluorescence intensity (a.u.)
17,CATATATTATAGAAGTTACTTTCTTTTTGTTATAAGTTACCGGAGTCACCTAGTGCAG,8280 fluorescence intensity (a.u.)
18,ACGCGCGGCCTAGTTGTGTGTGGGTGTGTGAGGTGAGGGGCGGAGTCACCTAGTGCAG,11000 fluorescence intensity (a.u.)
19,GCACAGTTGATCCAGCAGGTTTATTTTATTGATTTCTTTTCGGAGTCACCTAGTGCAG,10600 fluorescence intensity (a.u.)
20,CGGCTATTGTTTTTGCTTCAGTGGGTGGGATCCAGGAAGACGGAGTCACCTAGTGCAG,13800 fluorescence intensity (a.u.)
21,GCCCAATATCATCTGGCCCAATAATAGCCCACACAACCCTCGGAGTCACCTAGTGCAG,8550 fluorescence intensity (a.u.)
